Assay results as given in patent USRE39708E1, “Estrogen receptor modulators” (Chiron Corporation, priority 1998, dated 2007).
Some results were stated once for a whole list of compounds, not compound by compound.

Test system: ERα and/or ERβ
Assay: ERα/ERβ transactivation assay in transfected CHO cells (luciferase reporter), estrogenicity and anti-estrogenicity
Assay type: cell-based, human
Details: read-out: agonist or antagonist EC50 (determined to be active); active against either or both ERα and ERβ; agonist or antagonist value

Structure (SMILES) | EC50
CCc1c(-c2cccc(O)c2)nn(-c2ccccc2C(F)(F)F)c1-c1ccc(O)cc1 [3-{4-ethyl-5-(4-hydroxyphenyl)-1-[2-(trifluoromethyl)phenyl]pyrazol-3-yl}phenol] | ≤ 4 µM
Oc1ccc(-c2nn(-c3cc(C(F)(F)F)ccc3Cl)c(-c3ccc(O)cc3)c2-c2ccccc2)cc1 [4-{1-[2-chloro-5-(trifluoromethyl)phenyl]-5-(4-hydroxyphenyl)-4-phenylpyrazol-3-yl}phenol] | ≤ 4 µM
CCc1c(-c2ccc(O)cc2)nn(-c2cccc(Cl)c2Cl)c1-c1ccc(O)cc1 [4-[1-(2,3-dichlorophenyl)-4-ethyl-5-(4-hydroxyphenyl)pyrazol-3-yl]phenol] | ≤ 4 µM
Oc1ccc(-c2nn(-c3cccc(Cl)c3)c(-c3ccc(O)cc3)c2-c2ccccc2)cc1 [4-[1-(3-chlorophenyl)-5-(4-hydroxyphenyl)-4-phenylpyrazol-3-yl]phenol] | ≤ 4 µM
CCc1c(-c2ccc(O)cc2)nn(Cn2nc(-c3ccc(O)cc3)c(CC)c2-c2ccc(O)cc2)c1-c1ccc(O)cc1 [4-[1-{3,5-bis(4-hydroxyphenyl)-4-ethylpyrazolyl]methyl}-4-ethyl-3-(4-hydroxyphenyl)pyrazol-5-yl)phenol] | ≤ 4 µM
CCCCCCCCCCCCCCCCSc1cccc(-n2nc(-c3ccc(O)cc3)c(-c3ccc(O)cc3)c2-c2ccc(O)cc2)c1 [4-[3,5-bis(4-hydroxyphenyl)-1-(3-hexadecylthiophenyl)pyrazol-4-yl]phenol] | ≤ 4 µM
CCc1c(-c2ccc(O)cc2)nn(-c2ccc(F)cc2)c1-c1ccc(O)cc1 [4-[4-ethyl-1-(4-fluorophenyl)-5-(4-hydroxyphenyl)pyrazol-3-yl]phenol] | ≤ 4 µM
CCc1c(-c2ccc(O)cc2)nn(-c2ccc(Cl)cc2C)c1-c1ccc(O)cc1 [4-[1-(4-chloro-2-methylphenyl)-4-ethyl-5-(4-hydroxyphenyl)pyrazol-3-yl]phenol] | ≤ 4 µM
